Laboratory results published in patent US20130005676A1 (UNIVERSITY OF ROCHESTER, priority 2009, published 2013).

Test system: AMP deaminase
Assay: HPLC analysis of AMP degradation in muscle/subcutis sections from the Zusanli point
Type: biochemical, mice
Conditions: 1 mM AMP, 45 min
Protocol: The analysis of enzymatic degradation of purines was based on sections (400 μm) of skeletal muscles with overlying subcutis harvested from tissue in the Zusanli point. Each section per well was placed into a 6-well plate with 2 ml (in a phosphate-free buffer (in mM: 2 CaCl2, 120 NaCl, 5 KCL, 10 Glucose, 20 HEPES, pH=7.3) and bubble with 100% O2 containing 1 mM AMP with or without 500 μM deoxycoformycin (Tocris Bioscience, UK). The samples were collected from each well at 0 and 45 min and stored at −80° C. for HPLC analysis. The analyses were carried out on an ESA reverse-phase H584 HPLC system (ESA Inc., USA) and an ESA model 526 UV detector (ESA Inc.) as previously described (Cui et al., “The Organic Cation Transporter-3 is a Pivotal Modulator of Neurodegeneration in the Nigrostriatal Dopaminergic Pathway,” Proc. Nat'l. Acad. Sci. USA 106:8043-8048 (2009); Volonte et al., “Development of an HPLC Method for Determination of Metabolic Compounds in Myocardial Tissue,” J. Pharm. Biomed. Anal. 35:647-653 (2004), which are hereby incorporated by reference in their entirety). Chromatographic separation was achieved by using a Lichrospher® 100 RP-18 column (5 μm, 250 mm×3 mm; Merck, Germany). […] Eluted purines were detected at 260 nm, and the chromatographic peaks were integrated using CoulArray software.

Nc1ncnc2c1ncn2[C@@H]1O[C@H](COP(=O)(O)O)[C@@H](O)[C@H]1O [AMP]
exogenous added AMP deaminated to IMP: ~80% | exogenous added AMP dephosphorylated to adenosine: 20%
